{"source": "patent US9352015B2", "about": "“Antimicrobial peptides” (priority 2009, dated 2016)", "key": {"Pseudomonas aeruginosa": {"tested_on": "Pseudomonas aeruginosa", "conditions": "for Therapeutic index HC50/MIC: HC50 over geometric mean MIC; for Therapeutic index HC50/MIC / Therapeutic index Fold (improvement compared to D1): P. aeruginosa"}, "Acinetobacter baumannii": {"tested_on": "Acinetobacter baumannii", "type": "cell-based", "experimental": "(§1) Minimal inhibitory concentrations (MICs) are determined using a standard microtiter dilution method, with 3 sets of determinations, in LB (Luria-Bertani) no-salt medium (10 g of tryptone and 5 g of yeast extract per liter). In some cases, Mueller Hinton (MH) medium or Brain Heart Infusion (BHI) medium is used.\n(§2) Briefly, cells were grown overnight at 37° C. in LB and diluted in the same medium. Serial dilutions of the peptides are added to the microtiter plates in a volume of 100 μl followed by 10 μl of bacteria to give a final inoculum of 5×10^5 colony-forming units/ml. Plates are incubated at 37° C. for 24 hours and MICs determined as the lowest peptide concentration that inhibited growth. Alternatively, minimal inhibitory concentrations are determined using a standard microtiter dilution method in a Mueller-Hinton (MH) medium. Briefly, cells are grown overnight at 37° C. in MH broth and diluted in the same medium. In some cases, serial dilutions of the peptides are added to the microtiter plates in a volume of 100 μl followed by 10 μl of bacteria to give a final inoculum of 1×10^5 colony-forming units/ml. Plates are incubated at 37° C. for 24 hours and MICs are determined as the lowest peptide concentration that inhibited growth.\nThe biological activities of these six peptide analogs was determined against 11 clinical isolated of Acinetobacter baumannii (Table 9). Please note that the activities are reported in micromolar rather than microgram/ml. This allows a direct comparison on a molar basis with the effectiveness of molecules of different molecular weights whether peptides disclosed herein or antibiotics which in general are smaller in molecular mass. […] These are the highest antimicrobial activities observed in studies of antimicrobial peptides derived by modifying the peptide sequence of SEQ ID NO:24 (D1). D22 has the best hemolytic activity of the six analogs (D17-D22) and a therapeutic index of […] compared to […] for D1 (Table 9). D22 has no apparent advantage over D1 as determined in these experiments."}, "Gram-negative bacteria": {"tested_on": "Gram-negative bacteria", "experiment": "MIC against Gram-negative bacteria (V681 analog studies)", "type": "cell-based", "experimental": "as §1, §2"}}, "note": "Like-named read-outs stand apart in the source and are kept apart here."}
{"smiles": "CC[C@@H](C)[C@@H](NC(=O)[C@@H](C)NC(=O)[C@@H](CCCCN)NC(=O)[C@@H](CC(C)C)NC(=O)[C@@H](C)NC(=O)[C@H](NC(=O)[C@@H](Cc1c[nH]cn1)NC(=O)[C@@H](CC(C)C)NC(=O)[C@H](NC(=O)[C@H](NC(=O)[C@@H](CCCCN)NC(=O)[C@@H](CCCCN)NC(=O)[C@@H](C)NC(=O)[C@@H](CO)NC(=O)[C@@H](CCCCN)NC(=O)[C@@H](Cc1ccccc1)NC(=O)[C@H](NC(=O)[C@@H](CCCCN)NC(=O)[C@@H](CC(C)C)NC(=O)[C@@H](Cc1ccccc1)NC(=O)[C@@H](CO)NC(=O)[C@@H](CCCCN)NC(=O)[C@@H](Cc1c[nH]c2ccccc12)NC(=O)[C@@H](CCCCN)NC(C)=O)[C@H](C)O)[C@H](C)O)C(C)C)[C@H](C)O)C(=O)N[C@H](CO)C(=O)N[C@H](CO)C(N)=O", "note": "[Peptide D1, Ac-KWKSFLKTFKSAKKTVLHTALKAISS-amide]", "values": [{"measurement": "Fold improvement in therapeutic index against Pseudomonas aeruginosa strains compared to V681", "setting": "Pseudomonas aeruginosa", "value": 53, "unit": "fold"}, {"measurement": "Therapeutic index HC50/MIC", "setting": "Pseudomonas aeruginosa; Brain Heart Infusion medium", "value": 13.5}, {"measurement": "Therapeutic index Fold (improvement compared to D1)", "setting": "Pseudomonas aeruginosa; Brain Heart Infusion medium", "value": 1.00}, {"measurement": "Therapeutic index HC50/MIC", "setting": "Pseudomonas aeruginosa; Mueller Hinton medium", "value": 34.0}, {"measurement": "Therapeutic index Fold (improvement compared to D1)", "setting": "Pseudomonas aeruginosa; Mueller Hinton medium", "value": 1.00}, {"measurement": "Therapeutic Index HC50/MIC against A. baumannii", "setting": "Acinetobacter baumannii", "value": 128.1}, {"measurement": "Therapeutic index against A. baumannii (printed with μM)", "setting": "Acinetobacter baumannii; text to Table 9", "value": 128.1, "unit": "µM"}, {"measurement": "Fold increase in therapeutic index against Gram-negative bacteria compared to V681", "setting": "Gram-negative bacteria", "value": 80, "unit": "fold"}]}
